Laboratory results taken from PubChem BioAssay AID330 (DTP/NCI, 2004).
The list shows only some results of the screen, not a fair sample: it is rich in T/C values a quarter to a half above the control, in often repeated tests (any T/C) and in doses without a T/C. Further doses and runs are listed elsewhere. T/C gives the treated animals as a percentage of the vehicle group. Some doses have a count of surviving animals in place of a T/C: the source files T/C as zero there, which appears to mark a toxic dose or a test without result, not a measured value. Some survivor counts are full or nearly so, which does not show that the dose was tolerated: the source hardly ever lists a survival T/C far under the control, and the zero likely stands for such cases as well. Counts of survivors are from the toxicity check (mostly the fifth day) where no day follows; animals may have died later. Schedules are NCI's codes, taken here to give the interval after Q, in days (D) or hours (H), and the number of doses after X. Marks such as (2×) say how often a value occurs here. Some entries were tested several times; their values stand side by side, smallest first. For survival time, this PubChem deposit counts one and a half times the control or more as active, and values a quarter to a half above the control carry no call in these data; other NCI protocols may use other cut-offs. Some T/C values are followed by the survivors on the day toxicity was checked, most often the fifth; without a count, all were alive then.

Tested on: P388 leukemia ip, CD2F1 mice, survival T/C
Assay: NCI In Vivo Anticancer Drug Screen. Data for tumor model P388 Leukemia (intraperitoneal) in CD2F1 (CDF1) mice
Conditions: T/C endpoint: median survival time, higher T/C = longer survival
[1] = dose: 100.0 mg/kg/injection, schedule: Q01DX009 (ip), vehicle: saline with Tween-80
[2] = dose: 240.0 mg/kg/injection, schedule: Q01DX005 (ip), vehicle: Klucel (hydroxypropylcellulose) (HPC)
[3] = dose: 50.0 mg/kg/injection, schedule: Q01DX009 (ip), vehicle: Klucel (hydroxypropylcellulose) (HPC)
[4] = dose: 25.0 mg/kg/injection, schedule: Q01DX009 (ip), vehicle: saline with Tween-80
[5] = dose: 50.0 mg/kg/injection, schedule: Q01DX009 (ip), vehicle: saline with Tween-80
[6] = dose: 50.0 mg/kg/injection, schedule: Q01DX005 (ip), vehicle: saline with Tween-80
[7] = dose: 100.0 mg/kg/injection, schedule: Q01DX005 (ip), vehicle: saline with Tween-80
[8] = dose: 200.0 mg/kg/injection, schedule: Q01DX005 (ip), vehicle: saline with Tween-80
[9] = dose: 100.0 mg/kg/injection, schedule: Q01DX009 (ip), vehicle: Klucel (hydroxypropylcellulose) (HPC)
[10] = dose: 400.0 mg/kg/injection, schedule: Q04DX003 (ip), vehicle: saline
[11] = dose: 200.0 mg/kg/injection, schedule: Q01DX005 (ip), vehicle: Klucel (hydroxypropylcellulose) (HPC)
[12] = dose: 25.0 mg/kg/injection, schedule: Q01DX005 (ip), vehicle: saline with Tween-80
[13] = dose: 12.5 mg/kg/injection, schedule: Q01DX009 (ip), vehicle: saline with Tween-80
[14] = dose: 200.0 mg/kg/injection, schedule: Q01DX009 (ip), vehicle: saline with Tween-80
[15] = dose: 200.0 mg/kg/injection, schedule: Q01DX009 (ip), vehicle: Klucel (hydroxypropylcellulose) (HPC)
[16] = dose: 100.0 mg/kg/injection, schedule: Q01DX009 (ip), vehicle: saline
[17] = dose: 50.0 mg/kg/injection, schedule: Q01DX009 (ip), vehicle: saline
[18] = dose: 200.0 mg/kg/injection, schedule: Q01DX009 (ip), vehicle: saline

Clc1ccc(C(CCc2ccc(Br)cc2)Cn2ccnc2)c(Cl)c1 (configuration not stated)
survivor count [1]: 4 of 6

CC(C)(C)C(=O)CC(=[OH+])c1ccccc1[PH+](c1ccccc1)c1ccccc1.CC(C)(C)C(=O)CC(=[OH+])c1ccccc1[PH+](c1ccccc1)c1ccccc1.O=C(O)c1ccccc1.[Cu].[Cu]
survivor count (dose: 100.0 mg/kg/injection, schedule: Q01DX001 (ip), vehicle: saline with Tween-80): 6 of 6
survivor count (dose: 200.0 mg/kg/injection, schedule: Q01DX001 (ip), vehicle: saline with Tween-80): 6 of 6
survivor count (dose: 400.0 mg/kg/injection, schedule: Q01DX001 (ip), vehicle: saline with Tween-80): 6 of 6

Oc1cc2c(cc1C(c1ccc(Cl)cc1)N1CCN(C(c3ccc(Cl)cc3)c3cc4c(cc3O)OCO4)CC1)OCO2 (configuration not stated)
survivor count [2]: 6 of 6

CCCC1SCC(=O)N1c1nncs1 (configuration not stated)
T/C (dose: 120.0 mg/kg/injection, schedule: Q01DX005 (ip), vehicle: Klucel (hydroxypropylcellulose) (HPC)): 130 % of control
T/C [2]: 147 % of control
T/C (dose: 400.0 mg/kg/injection, schedule: Q01DX001 (ip), vehicle: Klucel (hydroxypropylcellulose) (HPC)): 125 % of control

O=[N+]([O-])c1ccc2nccc(Cl)c2c1
survivor count [3]: 3 of 6

CCCCCCCCCCCCS(=O)(=O)O
T/C [4]: 126 % of control [5 of 6 alive]
survivor count [4]: 5 of 6
survivor count [5]: 5 of 6 (2×)

[Cl][Pt+2]([Cl])([Cl])[Cl].[Na+].[S-]c1ncnc2nc[nH]c12.[S-]c1ncnc2nc[nH]c12
T/C (dose: 300.0 mg/kg/injection, schedule: Q01DX009 (ip), vehicle: saline with Tween-80): 136 % of control

CC(=O)CCN1C(C#N)CCCC1C#N (configuration not stated)
survivor count [6]: 0 of 5
survivor count [7]: 0 of 5
survivor count [8]: 0 of 5

C(=C\CSc1ccccn1)/CSc1ccccn1
survivor count [9]: 6 of 6

C/C(=N\NC(=S)N1CCC(c2ccccc2)CC1)c1ccccn1
survivor count [10]: 0 of 6

CC(C)CCC[C@@H](C)[C@H]1CC[C@H]2[C@@H]3CC[C@H]4C[C@@H](N)CC[C@]4(C)[C@H]3CC[C@]12C
survivor count [11]: 1 of 5

CC(/C=C/c1ccc2c(c1)OCO2)=N\NC(N)=S
survivor count (dose: 12.5 mg/kg/injection, schedule: Q01DX005 (ip), vehicle: saline with Tween-80): 1 of 6
survivor count [12]: 0 of 6
survivor count [6]: 0 of 6
survivor count [7]: 0 of 6
survivor count [8]: 0 of 6

COc1cc(NC(=O)c2ccc(NC(=O)c3ccc(N)cc3)cc2)c(OC)cc1N=Nc1cc(C)c(N=Nc2cc(S(=O)(=O)O)c3cccc(S(=O)(=O)O)c3c2)cc1C
survivor count [8]: 5 of 6

Cn1nc(/C=C/c2ccccc2)nc2c(=O)n(C)c(=O)nc1-2
survivor count [13]: 0 of 6
survivor count [4]: 0 of 6
survivor count [5]: 0 of 6
survivor count [1]: 0 of 6
survivor count [14]: 0 of 6

O=c1c2ccccc2ncn1S(=O)(=O)c1ccc(N(CCCl)CCCl)cc1
T/C (dose: 400.0 mg/kg/injection, schedule: Q04DX002 (ip), vehicle: saline with Tween-80): 133 % of control

Clc1ccc(C#Cc2ccc(Cl)cc2)cc1
survivor count [13]: 4 of 6

c1ccc([As](c2ccccc2)c2cccc[c]2[Bi]([c]2ccccc2)[c]2ccccc2)cc1
survivor count [5]: 6 of 6
survivor count [1]: 3 of 6
survivor count [14]: 1 of 6

COC(=O)c1c(O)c(OC)c(-c2ccccc2)[nH]c1=O
survivor count (dose: 240.0 mg/kg/injection, schedule: Q01DX005 (ip), vehicle: saline with Tween-80): 6 of 6

COc1cc2c(cc1OC)-c1c3c(cc4c1[C@@H](C2)N(C)CC4)OCO3
T/C (dose: 100.0 mg/kg/injection, schedule: Q01DX009 (ip), vehicle: distilled water + Tween-80): 127 and 131 % of control
survivor count [1]: 4 of 6
survivor count (dose: 150.0 mg/kg/injection, schedule: Q01DX009 (ip), vehicle: distilled water + Tween-80): 3 of 5
survivor count (dose: 200.0 mg/kg/injection, schedule: Q01DX009 (ip), vehicle: distilled water + Tween-80): 0 of 6

CCOC(=O)c1c(-c2ccc3c(c2)OCO3)[nH][nH]c1=O
survivor count (dose: 400.0 mg/kg/injection, schedule: Q04DX002 (ip), vehicle: saline): 3 of 6

CCN(CC)Cc1c(C)[nH]c2cc(N(C)C)ccc2c1=O
survivor count [15]: 6 of 6

CNC(=O)Nc1ccncc1
survivor count [16]: 0 of 5

S=c1nc(-c2ccccn2)c(-c2ccccn2)n[nH]1
T/C [7]: 127 % of control

Oc1ccccc1C=NCCC[OH2+].Oc1ccccc1C=NCCC[OH2+].[Cu].[Cu]
survivor count [12]: 5 of 5
T/C [7]: 126 % of control
survivor count [7]: 2 of 5
survivor count [8]: 0 of 5 and 1 of 5

O=[N+]([O-])c1ccc(-c2cn3nc(-c4ccccc4)c(-c4ccccc4)nc3n2)cc1
survivor count (dose: 100.0 mg/kg/injection, schedule: Q01DX005 (ip), vehicle: Klucel (hydroxypropylcellulose) (HPC)): 6 of 6
survivor count [11]: 5 of 6

COC(=O)C1c2ccccc2CC(=O)N1N (configuration not stated)
survivor count [3]: 0 of 6
survivor count [9]: 0 of 6
survivor count [15]: 0 of 6

[CH3][Ge]([CH3])([Cl])[c]1cc[c]([Ge]([CH3])([CH3])[Cl])cc1
T/C (dose: 25.0 mg/kg/injection, schedule: Q01DX009 (ip), vehicle: saline): 134 and 137 % of control [5 of 6 alive]
survivor count [17]: 5 of 6
survivor count [16]: 3 of 6
survivor count [18]: 1 of 6
survivor count (dose: 200.0 mg/kg/injection, schedule: Q04DX003 (ip), vehicle: saline): 1 of 6
survivor count [10]: 0 of 6

CC(=O)Nc1cccc2c1C(=O)c1nccnc1C2=O
survivor count (dose: 100.0 mg/kg/injection, schedule: Q04DX002 (ip), vehicle: Klucel + Tween-80): 1 of 6
survivor count (dose: 200.0 mg/kg/injection, schedule: Q04DX002 (ip), vehicle: Klucel + Tween-80): 0 of 6
survivor count (dose: 400.0 mg/kg/injection, schedule: Q04DX002 (ip), vehicle: Klucel + Tween-80): 0 of 6

S=C([S][Sn]([c]1ccccc1)([c]1ccccc1)[c]1ccccc1)N1CCOCC1
T/C (dose: 6.25 mg/kg/injection, schedule: Q01DX009 (ip), vehicle: saline with Tween-80): 126 % of control
T/C [13]: 130 and 143 % of control
survivor count [4]: 3 of 6, 4 of 6, 5 of 6
survivor count [5]: 0 of 6
survivor count [1]: 0 of 6
survivor count [14]: 0 of 6

N#CC1(Nc2ccccc2)CCCC1
T/C (dose: 3.13 mg/kg/injection, schedule: Q01DX009 (ip), vehicle: Klucel (hydroxypropylcellulose) (HPC)): 127 % of control
T/C (dose: 25.0 mg/kg/injection, schedule: Q01DX009 (ip), vehicle: Klucel (hydroxypropylcellulose) (HPC)): 130 % of control

C/C=C(\C)N=NNc1ccccc1
survivor count (dose: 400.0 mg/kg/injection, schedule: Q04DX003 (ip), vehicle: saline + Tween-80 + alcohol): 6 of 6

C[Si](C)(C)S[Si](C)(C)C
survivor count [15]: 0 of 6

N#CNC(=NC12CC3CC(CC(C3)C1)C2)Nc1ccncc1
survivor count (dose: 200.0 mg/kg/injection, schedule: Q04DX002 (ip), vehicle: saline with Tween-80): 6 of 6

N=C(N)SCc1ccc(C(=O)Oc2ccc([N+](=O)[O-])cc2)cc1
survivor count (dose: 400.0 mg/kg/injection, schedule: Q04DX003 (ip), vehicle: saline with Tween-80): 0 of 6

N=C(N)SCCCC(=O)O
survivor count [17]: 3 of 6
survivor count [16]: 1 of 6
survivor count [18]: 0 of 6
